PubChem BioAssay AID1259261, Sanger Institute, 2017
The deposit covers 794 reagents; shown is an unselected part. 10 of them (1.3%) were called active. 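Calls reflect knock-down alone without drug; synergy scores with BYL719, cetuximab or trametinib do not affect calls.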 Unmarked entries are inactive. Viability is capped at 1. Further read-outs or replicates are left out here. Not given: the amount of reagent, the time to read-out.

Test: 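Find kinase silencing that cuts viability alone or with anchor drugs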 (primary screen)
Cells: HCC2998 human colorectal cancer cells
Reagents: siRNA pool against human genes
Treatment: anchor drugs BYL719 1 µM, cetuximab 5 µg/ml or trametinib 10 nM, each compared with DMSO vehicle
Detection: 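Viability as fraction of non-targeting control plus robust z-score without drug; synergy scores compare knock-down plus drug against each alone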
Direction: viability z-score, knock-down alone: higher = more viable cells than controls; viability fraction, knock-down alone: higher = more viable cells; synergy score with BYL719: higher = stronger combined killing with BYL719
Active means: 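Essential when the siRNA-alone viability robust z-score is below -3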
Calls: active = essential; inactive = no change

The first 4 entries, to show the layout:
| target gene | viability z-score, knock-down alone | viability fraction, knock-down alone | synergy score with BYL719 |
| --- | --- | --- | --- |
| PTEN (phosphatase and tensin homolog) | 0.000523 | 0.849 | -0.14 |
| PIP5K1C (phosphatidylinositol-4-phosphate 5-kinase type 1 gamma) | 0.648 | 0.93 | 0.146 |
| PANK1 (pantothenate kinase 1) | 1.21 | 1 | -0.00639 |
| RIOK2 (RIO kinase 2) | 0.593 | 0.923 | -0.0083 |

The listing, from the first entry:
| target gene | viability z-score, knock-down alone | viability fraction, knock-down alone | synergy score with BYL719 |
| --- | --- | --- | --- |
| PTEN (phosphatase and tensin homolog) | 0.000523 | 0.849 | -0.14 |
| PIP5K1C (phosphatidylinositol-4-phosphate 5-kinase type 1 gamma) | 0.648 | 0.93 | 0.146 |
| PANK1 (pantothenate kinase 1) | 1.21 | 1 | -0.00639 |
| RIOK2 (RIO kinase 2) | 0.593 | 0.923 | -0.0083 |
| PANK3 (pantothenate kinase 3) | 0.138 | 0.866 | -0.0418 |
| NUAK1 (NUAK family kinase 1) | -0.932 | 0.732 | -0.145 |
| PRKD3 (protein kinase D3) | -1.42 | 0.671 | -0.0232 |
| ACVR2B (activin A receptor type 2B) | 0.803 | 0.95 | -0.0771 |
| ITPK1 (inositol-tetrakisphosphate 1-kinase) | 0.987 | 0.973 | 0.0463 |
| EPHA2 (EPH receptor A2) | 1.21 | 1 | -0.109 |
| TCF7L2 (transcription factor 7 like 2) | 0.599 | 0.924 | -0.162 |
| CDK1 (cyclin dependent kinase 1) | 0.643 | 0.929 | -0.0286 |
| TEC (tec protein tyrosine kinase) | 1.21 | 1 | -0.0773 |
| BPTF (bromodomain PHD finger transcription factor) | -0.982 | 0.726 | -0.0652 |
| NADK (NAD kinase) | 0.831 | 0.953 | -0.00927 |
| SYK (spleen associated tyrosine kinase) | -0.924 | 0.733 | 0.0734 |
| CDK15 (cyclin dependent kinase 15) | 0.986 | 0.972 | -0.105 |
| PRKX (protein kinase cAMP-dependent X-linked catalytic subunit) | 1.21 | 1 | -0.077 |
| HK3 (hexokinase 3) | 1.21 | 1 | -0.0796 |
| PFKM (phosphofructokinase, muscle) | -1.84 | 0.618 | -0.0651 |
| MAPKAPK5 (MAPK activated protein kinase 5) | 1.16 | 0.994 | 0.0487 |
| RIPK2 (receptor interacting serine/threonine kinase 2) | -0.00596 | 0.848 | -0.0359 |
| MAP3K14 (mitogen-activated protein kinase kinase kinase 14) | -0.729 | 0.757 | 0.0197 |
| PKLR (pyruvate kinase L/R) | -1.78 | 0.626 | -0.0856 |
| SOX9 (SRY-box transcription factor 9) | 0.277 | 0.884 | -0.118 |
| GK2 (glycerol kinase 2) | 0.891 | 0.961 | 0.00479 |
| STK35 (serine/threonine kinase 35) | -0.216 | 0.822 | 0.0235 |
| PDK1 (pyruvate dehydrogenase kinase 1) | 1.21 | 1 | 0.0245 |
| NTRK1 (neurotrophic receptor tyrosine kinase 1) | -0.657 | 0.767 | -0.0722 |
| PRKD1 (protein kinase D1) | 1.21 | 1 | 0.098 |
| CAD | 1.21 | 1 | -0.109 |
| MAP3K15 (mitogen-activated protein kinase kinase kinase 15) | 1.21 | 1 | -0.013 |
| RPS6KA1 (ribosomal protein S6 kinase A1) | 0.834 | 0.953 | 0.0154 |
| PDPK1 (3-phosphoinositide dependent protein kinase 1) | -1.14 | 0.706 | 0.0392 |
| ADPGK (ADP dependent glucokinase) | -0.132 | 0.832 | 0.0533 |
| JAK1 (Janus kinase 1) | 0.086 | 0.86 | -0.0916 |
| SKAP1 (src kinase associated phosphoprotein 1) | 0.403 | 0.899 | 0.00196 |
| STK10 (serine/threonine kinase 10) | 1.21 | 1 | -0.0349 |
| DCK (deoxycytidine kinase) | -4.23 (active) | 0.318 | -0.268 |
| DGKI (diacylglycerol kinase iota) | 1.21 | 1 | -0.0459 |
| BRD2 (bromodomain containing 2) | -0.552 | 0.78 | -0.0562 |
| GUCY2F (guanylate cyclase 2F, retinal) | -0.398 | 0.799 | -0.0196 |
| IKBKG | -0.453 | 0.792 | -0.0148 |
| MAP3K7 (mitogen-activated protein kinase kinase kinase 7) | 0.708 | 0.938 | 0.00456 |
| PI4K2A (phosphatidylinositol 4-kinase type 2 alpha) | 1.21 | 1 | 0.132 |
| CDK10 (cyclin dependent kinase 10) | -0.526 | 0.783 | -0.0797 |
| CDC42BPA (CDC42 binding protein kinase alpha) | -1.13 | 0.707 | -0.0585 |
| AK1 (adenylate kinase 1) | 0.228 | 0.877 | 0.0343 |
| TTK (TTK protein kinase) | -1.22 | 0.696 | 0.0132 |
| EPHA8 (EPH receptor A8) | 1.15 | 0.993 | -0.0613 |
